Measurements taken from the supplement of paper PMC10331698.
± gives the standard deviation of the averaged measurements. Most entries show no effect beyond the scatter of the controls.

Key:
Assay in all cases: level (log10 ratio to DMSO vehicle control); higher = higher biomarker level / cell amount than vehicle control
[1] = compound: C=C(C)C(=O)OCCC(F)(F)C(F)(F)C(F)(F)C(F)(F)C(F)(C(F)(F)F)C(F)(F)F [(Perfluoro-5-methylhexyl)ethyl 2-methylprop-2-enoate]; conditions: in DMSO
Procedure: (§1)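 BioMAP Diversity Plus panel of 12 human primary cell co-culture systems (3C, 4H, LPS, SAg, BT, BF4T, BE3C, CASM3C, HDF3CGF, KF3CT, MyoF, Mphg). Compounds were added 1 h before stimulation and left for 24 h (MyoF 48 h; BT 72 h for soluble read-outs or 6 d for IgG). Biomarkers were read by ELISA, cytotoxicity by SRB, PBMC viability and proliferation by Alamar Blue. Each well value was divided by the mean of 8 DMSO control wells on the same plate and log10 transformed; duplicate blinded samples were tested at 4 concentrations.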

[2] = compound: C=C(C)C(=O)OCCC(F)(F)C(F)(F)C(F)(F)C(F)(F)C(F)(F)C(F)(F)C(F)(F)C(F)(F)F [8:2 Fluorotelomer methacrylate]; conditions: in DMSO
Procedure: as §1

[3] = compound: COC(=O)CCC(F)(F)C(F)(F)C(F)(F)C(F)(F)F [Methyl 2H,2H,3H,3H-perfluoroheptanoate]; conditions: 2200 nM; in DMSO
Procedure: as §1

[4] = compound: FC(F)(F)C(F)(F)C(F)(F)C(F)(F)C(F)(F)CCI [1-Iodo-1H,1H,2H,2H-perfluoroheptane]; conditions: 2200 nM; in DMSO
Procedure: as §1

Octafluoroadipamide = compound: NC(=O)C(F)(F)C(F)(F)C(F)(F)C(F)(F)C(N)=O [Octafluoroadipamide]; conditions: 2200 nM; in DMSO
Procedure: as §1

Nonafluoropentanamide = compound: NC(=O)C(F)(F)C(F)(F)C(F)(F)C(F)(F)F [Nonafluoropentanamide]; conditions: 2200 nM; in DMSO
Procedure: as §1

[5] = compound: NS(=O)(=O)C(F)(F)C(F)(F)C(F)(F)C(F)(F)C(F)(F)C(F)(F)F [Perfluorohexanesulfonamide]; conditions: 2200 nM; in DMSO
Procedure: as §1

Tetrafluorosuccinic acid = compound: O=C(O)C(F)(F)C(F)(F)C(=O)O [Tetrafluorosuccinic acid]; conditions: 2200 nM; in DMSO
Procedure: as §1

[6] = compound: O=C(O)C(F)(F)C(F)(F)C(F)(F)C(F)(F)C(F)(F)C(F)(F)C(F)(F)C(F)(F)Cl [9-Chloro-perfluorononanoic acid]; conditions: in DMSO
Procedure: as §1

[7] = compound: O=C(O)CCC(F)(F)C(F)(F)C(F)(F)C(F)(F)C(F)(F)F [2H,2H,3H,3H-Perfluorooctanoic acid]; conditions: 2200 nM; in DMSO
Procedure: as §1

[8] = compound: O=S(=O)(O)C(F)(F)C(F)(F)OC(F)(F)C(F)(F)F [Perfluoro(2-ethoxyethane)sulfonic acid]; conditions: 2200 nM; in DMSO
Procedure: as §1

[9] = compound: O=S(=O)(O)CCC(F)(F)C(F)(F)C(F)(F)C(F)(F)C(F)(F)C(F)(F)F [6:2 Fluorotelomer sulfonic acid]; conditions: in DMSO
Procedure: as §1

Perfluoropinacol = compound: OC(C(F)(F)F)(C(F)(F)F)C(O)(C(F)(F)F)C(F)(F)F [Perfluoropinacol]; conditions: in DMSO
Procedure: as §1

[10] = compound: OCCC(F)(F)C(F)(F)C(F)(F)C(F)(F)F [4:2 Fluorotelomer alcohol]; conditions: 2200 nM; in DMSO
Procedure: as §1

| Test System | level (log10) ([1]; 740 nM) | level (log10) ([1]; 2200 nM) | level (log10) ([1]; 6700 nM) | level (log10) ([1]; 20000 nM) | level (log10) ([2]; 740 nM) | level (log10) ([2]; 2200 nM) | level (log10) [3] | level (log10) [4] | level (log10) (Octafluoroadipamide) | level (log10) (Nonafluoropentanamide) | level (log10) [5] | level (log10) (Tetrafluorosuccinic acid) | level (log10) ([6]; 2200 nM) | level (log10) ([6]; 6700 nM) | level (log10) ([6]; 20000 nM) | level (log10) [7] | level (log10) [8] | level (log10) ([9]; 2200 nM) | level (log10) ([9]; 6700 nM) | level (log10) ([9]; 20000 nM) | level (log10) ([9]; 60000 nM) | level (log10) (Perfluoropinacol; 2200 nM) | level (log10) (Perfluoropinacol; 6700 nM) | level (log10) (Perfluoropinacol; 20000 nM) | level (log10) [10] |
| --- | --- | --- | --- | --- | --- | --- | --- | --- | --- | --- | --- | --- | --- | --- | --- | --- | --- | --- | --- | --- | --- | --- | --- | --- | --- |
| CASM3C:CXCL9/MIG | 0.0175 ± 0.04 | 0.014 ± 0.045 | 0.0335 ± 0.029 | 0.0445 ± 0.046 | 0.0125 ± 0.043 | 0.0035 ± 0.00071 | 0.003 ± 0.011 | 0.0005 ± 0.015 | 0.0305 ± 0.018 | 0.0365 ± 0.0092 | -0.001 ± 0.013 | 0.0035 ± 0.033 | -0.01 ± 0.02 | -0.0355 ± 0.0035 | -0.0235 ± 0.013 | 0.01 ± 0.024 | 0.017 ± 0.048 | -0.007 ± 0.051 | -0.0445 ± 0.0078 | -0.0315 ± 0.0035 | -0.015 ± 0.045 | -0.007 ± 0.047 | -0.013 ± 0.02 | -0.0335 ± 0.011 | 0.0355 ± 0.028 |
| MyoF:CD106/VCAM-1 | -0.0125 ± 0.0021 | 0.002 ± 0.025 | 0.0095 ± 0.0092 | -0.013 ± 0.0028 | -0.0115 ± 0.0078 | 0.002 ± 0.0057 | -0.0245 ± 0.0021 | 0.003 ± 0.021 | -0.0005 ± 0.005 | -0.011 ± 0.017 | -0.0175 ± 0.016 | -0.0145 ± 0.0021 | -0.0215 ± 0.0078 | -0.008 ± 0.025 | -0.101 ± 0.023 | -0.016 ± 0.023 | -0.0145 ± 0.011 | -0.023 ± 0.0028 | -0.003 ± 0.0028 | -0.012 ± 0.0099 | -0.0095 ± 0.005 | -0.014 ± 0.014 | -0.013 ± 0.011 | -0.042 ± 0.0085 | 0.002 ± 0.021 |
| 3C:CD87/uPAR | -0.0275 ± 0.0092 | -0.0135 ± 0.005 | -0.007 ± 0.0028 | -0.019 ± 0.028 | 0.0385 ± 0.0064 | 0.057 ± 0.011 | -0.02 ± 0.0028 | -0.006 ± 0.0042 | 0.0045 ± 0.021 | -0.0155 ± 0.013 | -0.0245 ± 0.0064 | -0.0145 ± 0.0021 | -0.0085 ± 0.028 | -0.013 ± 0.017 | -0.011 ± 0.038 | -0.02 ± 0.059 | 0.0205 ± 0.016 | -0.03 ± 0.071 | -0.0235 ± 0.07 | -0.0245 ± 0.023 | -0.0015 ± 0.015 | -0.056 ± 0.0057 | -0.159 ± 0.04 | -0.29 ± 0.022 | -0.006 ± 0.023 |
